# PubChem BioAssay AID1259278, Sanger Institute – 2017
# Aim: 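Kinase knock-downs that raise colorectal cancer cell killing by anti-cancer drugs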 (follow-up of hits)
# System: human HT55 colorectal cancer cells
# Knock-down reagent: single siRNA against human genes
# Challenge: anchor drugs added to knock-down cells: cetuximab 5 µg/ml, trametinib 10 nM or BYL719 1 µM, against DMSO vehicle; chosen to hurt viability little alone
# Read-out: 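Per-replicate viability normalised to control pool 2 (non-targeting) then averaged, and for every anchor drug a computed synergy score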
# Direction: synergy score with BYL719 and synergy score with cetuximab and synergy score with trametinib: higher = stronger combined killing with knock-down; viability, knock-down alone (DMSO): higher = more cells survive
# Call rule: 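a knock-down is called active when its synergy score is above 0.10 for one or more anchor drugs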
# Calls: active = synergy with an anchor drug; inactive = no synergy
# The deposit covers 160 reagents; below is a random part of them. Of all reagents, 54 (34%) are marked active. 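Each call rests on one siRNA duplex in one cell line; gene-level support needs several duplexes and lines.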 Reagents against one gene are numbered here. Viability is capped at 1. Not given: the amount of reagent, the time to read-out.
target,reagent,synergy score with BYL719,synergy score with cetuximab,synergy score with trametinib,"viability, knock-down alone (DMSO)",Outcome
CHD4,1,0.0139,0.0263,0.0762,0.358,inactive
CHD4,2,-0.0567,0.0399,0.0642,0.437,inactive
CHD4,3,-0.0676,0.0565,0.0357,0.663,inactive
CHD4,4,-0.131,-0.021,0.0303,0.46,inactive
PIM1,1,-0.133,0.0441,0.0299,0.527,inactive
PIM1,2,0.133,0.124,0.0125,0.796,active
PIM1,3,0.00829,0.0522,-0.0322,1,inactive
PIM1,4,0.108,-0.02,0.0711,0.747,active
ACVR1,1,-0.321,-0.171,0.0346,1,inactive
ACVR1,2,-0.0243,0.0857,0.253,0.85,active
ACVR1,3,-0.134,0.0863,0.0675,0.875,inactive
ACVR1,4,-0.0252,0.149,0.14,0.969,active
BMPR2,1,-0.176,-0.0646,-0.0344,1,inactive
BMPR2,2,-0.0795,0.00634,-0.0433,0.727,inactive
BMPR2,3,-0.139,0.00136,-0.0923,0.757,inactive
BMPR2,4,-0.146,-0.0579,-0.255,1,inactive
AK2,1,-0.206,0,-0.0384,0.698,inactive
AK2,2,-0.231,-0.177,-0.0106,0.868,inactive
AK2,3,0.0936,0.0457,-0.0486,1,inactive
AK2,4,-0.301,-0.211,0.0865,0.873,inactive
PIK3CA,1,0.0977,0.00623,0.0653,0.708,inactive
PIK3CA,2,-0.0255,0.0353,0.0185,0.578,inactive
PIK3CA,3,-0.0319,-0.0863,0.0684,0.493,inactive
PIK3CA,4,-0.0521,0.216,0.152,0.758,active
